In paper PMC5059873:
No constants are given. Whether binding was seen depends on the method and setting. Binding seen in cells or lysates may run through a third protein. Some binding calls cover weakened binding; strength is not graded here.

Chains of the proteins cited; added tags and fusions are not shown.
UniProt Q8R4B8: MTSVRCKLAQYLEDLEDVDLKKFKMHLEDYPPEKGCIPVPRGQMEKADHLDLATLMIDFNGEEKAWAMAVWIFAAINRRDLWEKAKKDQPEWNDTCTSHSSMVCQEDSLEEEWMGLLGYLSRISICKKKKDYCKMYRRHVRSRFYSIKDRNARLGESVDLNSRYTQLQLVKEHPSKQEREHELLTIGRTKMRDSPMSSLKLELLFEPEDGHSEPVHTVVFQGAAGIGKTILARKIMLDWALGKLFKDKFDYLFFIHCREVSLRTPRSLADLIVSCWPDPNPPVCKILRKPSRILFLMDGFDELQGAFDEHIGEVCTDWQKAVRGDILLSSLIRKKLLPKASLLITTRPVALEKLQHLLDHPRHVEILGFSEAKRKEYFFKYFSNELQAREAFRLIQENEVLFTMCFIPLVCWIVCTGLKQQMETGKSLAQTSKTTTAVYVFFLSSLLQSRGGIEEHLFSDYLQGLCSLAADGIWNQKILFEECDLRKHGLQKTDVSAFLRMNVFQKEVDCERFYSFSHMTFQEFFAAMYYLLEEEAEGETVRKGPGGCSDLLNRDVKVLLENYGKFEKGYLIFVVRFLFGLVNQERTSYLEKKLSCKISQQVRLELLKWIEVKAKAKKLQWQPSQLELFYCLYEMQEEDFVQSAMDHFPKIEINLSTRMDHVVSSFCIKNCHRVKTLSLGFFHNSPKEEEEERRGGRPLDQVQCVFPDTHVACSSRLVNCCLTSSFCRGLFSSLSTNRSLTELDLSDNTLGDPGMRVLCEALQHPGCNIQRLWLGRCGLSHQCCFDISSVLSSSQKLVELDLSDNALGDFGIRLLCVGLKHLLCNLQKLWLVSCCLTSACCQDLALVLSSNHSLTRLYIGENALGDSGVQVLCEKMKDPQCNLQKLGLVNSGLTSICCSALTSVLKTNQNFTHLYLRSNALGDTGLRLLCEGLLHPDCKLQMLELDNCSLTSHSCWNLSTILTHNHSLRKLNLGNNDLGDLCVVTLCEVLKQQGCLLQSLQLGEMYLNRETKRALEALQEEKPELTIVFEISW

Target: T1, thioredoxin-interacting protein (mouse (endogenous in MLVEC)) (UniProt Q8BG60)
T1 sequence: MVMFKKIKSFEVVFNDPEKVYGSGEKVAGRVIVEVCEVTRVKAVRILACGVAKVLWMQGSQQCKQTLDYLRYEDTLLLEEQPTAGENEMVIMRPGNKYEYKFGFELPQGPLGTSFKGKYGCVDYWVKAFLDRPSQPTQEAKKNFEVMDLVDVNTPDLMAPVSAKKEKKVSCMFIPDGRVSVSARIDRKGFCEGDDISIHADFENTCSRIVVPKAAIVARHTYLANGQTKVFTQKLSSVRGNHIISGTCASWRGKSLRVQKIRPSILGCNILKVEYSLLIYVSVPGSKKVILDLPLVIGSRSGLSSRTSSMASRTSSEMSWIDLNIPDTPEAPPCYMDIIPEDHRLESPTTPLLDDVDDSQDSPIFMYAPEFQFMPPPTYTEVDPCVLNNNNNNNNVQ
Assay: co-IP; MLVEC lysate (600 ug total protein) immunoprecipitated with anti-TXNIP Ab, blotted for Nlrp3; lysis buffer 10 mM Tris pH 7.4, 150 mM NaCl, 5 mM EDTA, 1% Triton X-100; cells treated with HMGB1 (0.5 ug/ml, 4 h) and then LPS (1 ug/ml, 3 h); in some experiments NAC (10 mM) 30 min before

## Nlrp3 (NACHT, LRR and PYD domains containing protein 3) (from UniProt Q8R4B8 1-1033)
  binding: binds
